Measured values: article PMC8490982

Chains of the proteins cited; added tags and fusions are not shown.
UniProt Q9H8M2: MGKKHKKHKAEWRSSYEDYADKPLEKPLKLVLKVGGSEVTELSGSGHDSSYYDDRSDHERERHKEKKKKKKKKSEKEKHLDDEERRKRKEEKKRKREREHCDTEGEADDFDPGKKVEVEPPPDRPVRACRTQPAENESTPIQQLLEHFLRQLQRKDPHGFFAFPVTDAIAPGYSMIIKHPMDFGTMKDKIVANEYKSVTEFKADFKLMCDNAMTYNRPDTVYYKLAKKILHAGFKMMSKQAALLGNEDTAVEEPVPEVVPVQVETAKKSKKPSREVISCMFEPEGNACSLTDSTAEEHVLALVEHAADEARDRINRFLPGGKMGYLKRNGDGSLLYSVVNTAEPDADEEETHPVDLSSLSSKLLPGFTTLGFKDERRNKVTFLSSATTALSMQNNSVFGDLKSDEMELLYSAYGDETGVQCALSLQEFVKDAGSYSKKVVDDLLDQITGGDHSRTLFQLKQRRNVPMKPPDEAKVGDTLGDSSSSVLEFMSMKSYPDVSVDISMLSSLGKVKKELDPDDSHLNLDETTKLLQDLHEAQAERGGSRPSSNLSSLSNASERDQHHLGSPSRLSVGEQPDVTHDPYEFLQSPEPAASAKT
UniProt Q9NZM4: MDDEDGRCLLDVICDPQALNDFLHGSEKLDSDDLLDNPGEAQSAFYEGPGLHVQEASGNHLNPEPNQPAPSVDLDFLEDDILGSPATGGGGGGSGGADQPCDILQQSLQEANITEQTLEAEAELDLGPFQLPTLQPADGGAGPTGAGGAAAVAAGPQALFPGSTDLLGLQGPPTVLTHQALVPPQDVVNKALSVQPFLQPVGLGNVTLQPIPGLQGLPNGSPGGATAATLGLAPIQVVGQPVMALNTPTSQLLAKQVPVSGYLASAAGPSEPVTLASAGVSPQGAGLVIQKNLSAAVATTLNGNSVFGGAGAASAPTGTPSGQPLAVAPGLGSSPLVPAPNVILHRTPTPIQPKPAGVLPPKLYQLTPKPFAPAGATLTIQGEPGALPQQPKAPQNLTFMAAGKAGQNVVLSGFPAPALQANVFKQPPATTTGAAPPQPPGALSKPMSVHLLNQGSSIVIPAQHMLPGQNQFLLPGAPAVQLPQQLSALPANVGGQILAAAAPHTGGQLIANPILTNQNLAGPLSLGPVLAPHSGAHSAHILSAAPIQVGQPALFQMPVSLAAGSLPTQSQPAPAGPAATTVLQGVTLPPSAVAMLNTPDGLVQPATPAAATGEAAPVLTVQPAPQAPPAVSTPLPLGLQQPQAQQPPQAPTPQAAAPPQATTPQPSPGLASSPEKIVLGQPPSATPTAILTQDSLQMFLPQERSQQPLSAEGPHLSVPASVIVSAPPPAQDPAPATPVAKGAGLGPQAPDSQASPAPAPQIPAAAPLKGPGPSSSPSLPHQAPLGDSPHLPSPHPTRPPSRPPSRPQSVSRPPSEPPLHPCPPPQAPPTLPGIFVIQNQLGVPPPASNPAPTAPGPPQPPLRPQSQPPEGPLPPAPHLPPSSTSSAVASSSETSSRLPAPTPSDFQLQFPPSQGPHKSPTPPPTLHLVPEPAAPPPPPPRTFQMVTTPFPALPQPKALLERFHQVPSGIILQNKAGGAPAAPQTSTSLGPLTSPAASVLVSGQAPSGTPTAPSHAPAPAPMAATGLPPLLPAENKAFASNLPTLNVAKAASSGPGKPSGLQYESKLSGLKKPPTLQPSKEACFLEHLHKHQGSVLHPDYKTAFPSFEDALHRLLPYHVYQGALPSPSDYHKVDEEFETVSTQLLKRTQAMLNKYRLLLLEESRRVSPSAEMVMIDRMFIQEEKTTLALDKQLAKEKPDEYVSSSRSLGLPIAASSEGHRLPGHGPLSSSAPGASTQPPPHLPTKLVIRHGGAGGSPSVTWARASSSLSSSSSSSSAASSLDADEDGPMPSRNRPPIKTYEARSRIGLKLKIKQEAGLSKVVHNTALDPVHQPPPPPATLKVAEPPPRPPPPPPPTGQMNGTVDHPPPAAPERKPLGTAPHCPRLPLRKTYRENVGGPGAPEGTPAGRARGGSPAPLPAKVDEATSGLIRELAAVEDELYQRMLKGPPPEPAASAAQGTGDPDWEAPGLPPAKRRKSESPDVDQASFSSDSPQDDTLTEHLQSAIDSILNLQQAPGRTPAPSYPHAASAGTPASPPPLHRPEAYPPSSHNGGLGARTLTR
UniProt Q6AI39: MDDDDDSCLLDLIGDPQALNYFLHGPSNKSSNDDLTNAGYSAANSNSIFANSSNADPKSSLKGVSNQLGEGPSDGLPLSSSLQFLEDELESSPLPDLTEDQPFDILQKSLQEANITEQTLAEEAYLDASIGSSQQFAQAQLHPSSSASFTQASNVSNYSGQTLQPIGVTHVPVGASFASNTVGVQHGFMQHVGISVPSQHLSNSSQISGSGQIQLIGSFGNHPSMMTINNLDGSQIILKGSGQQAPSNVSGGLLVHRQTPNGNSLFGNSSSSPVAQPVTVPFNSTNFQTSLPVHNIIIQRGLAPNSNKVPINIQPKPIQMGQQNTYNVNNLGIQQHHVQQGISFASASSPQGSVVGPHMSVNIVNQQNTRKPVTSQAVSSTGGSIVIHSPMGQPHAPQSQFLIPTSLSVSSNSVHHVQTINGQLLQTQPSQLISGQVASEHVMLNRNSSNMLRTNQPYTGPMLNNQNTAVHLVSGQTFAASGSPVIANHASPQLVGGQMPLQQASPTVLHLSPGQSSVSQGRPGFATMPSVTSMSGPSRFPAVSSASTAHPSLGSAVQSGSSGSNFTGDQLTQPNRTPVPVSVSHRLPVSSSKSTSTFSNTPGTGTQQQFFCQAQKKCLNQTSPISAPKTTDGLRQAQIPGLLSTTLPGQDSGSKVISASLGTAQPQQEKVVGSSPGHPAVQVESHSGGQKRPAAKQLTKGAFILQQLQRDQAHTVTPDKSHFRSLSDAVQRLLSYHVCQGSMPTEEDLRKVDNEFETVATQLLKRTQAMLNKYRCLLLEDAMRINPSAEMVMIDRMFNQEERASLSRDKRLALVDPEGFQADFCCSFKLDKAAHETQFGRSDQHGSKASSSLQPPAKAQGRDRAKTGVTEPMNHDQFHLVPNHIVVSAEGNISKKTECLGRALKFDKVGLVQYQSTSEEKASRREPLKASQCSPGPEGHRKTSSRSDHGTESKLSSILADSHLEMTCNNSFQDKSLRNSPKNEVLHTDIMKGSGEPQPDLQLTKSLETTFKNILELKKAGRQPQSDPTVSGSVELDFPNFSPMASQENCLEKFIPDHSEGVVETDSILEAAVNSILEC

Target: TurboID-tagged BRD9 (human) (UniProt Q9H8M2)
Assay: proximity labelling

GLTSCR1 (from UniProt Q9NZM4 1-1560)
binding: binds

GLTSCR1L (from UniProt Q6AI39 1-1079)
binding: binds

These are yes or no findings as the source states them, for the method shown. In cells and extracts the contact can be indirect. These calls come from enrichment with a bait or labelling near it, and not all partners need be listed.
